{"source": "PubChem BioAssay AID493014", "about": "(National Center for Advancing Translational Sciences (NCATS), 2011)", "note": "Among all 340,000 compounds or so, about 170 (0.05%) were called active. The inconclusive results got no clear call from the source; some entries with a clear call stand among them for comparison. The call rests on the fitted dose curve; in most records, active means well fitted inhibition curve with a large enough effect in the signal ratio, with a control signal flat (not every such curve was filed as active); inconclusive means small, poorly fitted or top-dose-only effect, or effect the other way, or a change in a side signal; inactive means flat fitted curve, though single readings scatter; the % refers to the signal ratio. Where the call is inconclusive, the potency comes from a doubtful curve fit. Potency means the concentration at half of the fitted maximal effect."}
{"assay": "qHTS Assay to Find Inhibitors of Chronic Active B-Cell Receptor Signaling;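 on activity change, negative = inhibition: plate controls were basal doxycycline-induced cells for no effect and cells given 10 µM MG132 for full effect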", "details": "ABC-DLBCL IkBa-CBG/CBR reporter, luminescence ratio (green luciferase fused to IkBa over red control in TMD8 lymphoma cells), 4 h; activity change, negative = inhibition: at 46.1 µM (top of the series)", "procedure,_shortened": "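Concentration-response series (up to 46 uM) were applied to TMD8 dual-reporter cells for 4 h at 37C with doxycycline. Green/red ratio, after filter-overlap correction, defined %Activity; red signal alone was normalised to basal cells and zero luminescence.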"}
{"smiles": "Cc1csc(NC(=O)Nc2ccc(Cl)cc2)n1", "Potency": "inconclusive: 22.4 µM [falling, single point]"}
{"smiles": "O=C(CCCN1C(=O)/C(=C/c2cccc(Br)c2)SC1=S)Nc1ccccn1", "Potency": "inconclusive: 5.17 µM [falling, partial curve]"}
{"smiles": "COc1cccc(-c2csc3ncnc(Sc4nnnn4C)c23)c1", "activity change, negative = inhibition": "inconclusive: -7.68%"}
{"smiles": "O=C(O)CC(NC(=O)/C(=C/c1ccccc1)NC(=O)c1ccccc1)c1ccccc1", "note": "(stereo not drawn)", "activity change, negative = inhibition": "inactive: -9.6%"}
{"smiles": "O=C1C(=O)N(Cc2ccco2)C(c2cccs2)/C1=C(\\O)c1cccc([N+](=O)[O-])c1", "note": "(stereo not drawn)", "activity change, negative = inhibition": "inconclusive: 22.5%"}
{"smiles": "CCN(CC)CCOC(=O)c1ccc(NC(=O)/C=C/c2cccs2)cc1", "Potency": "inconclusive: 7.31 µM [falling, partial curve]"}
{"smiles": "O=c1c(/C=N/O)coc2ccc3ccccc3c12", "activity change, negative = inhibition": "inconclusive: -0.2%"}
{"smiles": "Cc1ccc(S(=O)(=O)Nc2nc3ccccc3nc2Nc2cccc(S(=O)(=O)N3CCCC3)c2)cc1", "activity change, negative = inhibition": "inactive: -4.57%"}
{"smiles": "COc1ccccc1NC(=S)N1CCN(c2cccc(C)c2C)CC1", "activity change, negative = inhibition": "inactive: -2.92%"}
{"smiles": "CCOc1ccc(N2CC(NC(=O)c3ccc(Cl)cc3)CC2=O)cc1", "note": "(stereo not drawn)", "Potency": "inconclusive: 4.47 µM [falling, partial curve, poor fit]"}
{"smiles": "O=[N+]([O-])c1ccc2nc(NCCCO)nc(-c3ccccc3)c2c1", "activity change, negative = inhibition": "inconclusive: 4.93%"}
{"smiles": "CCCCn1c(N)c(N(CC(C)C)C(=O)CSc2nnc(C)n2-c2ccc(OC)cc2)c(=O)[nH]c1=O", "activity change, negative = inhibition": "inactive: -2.68%"}
{"smiles": "CC1CN(C(=O)CCC(=O)N2CCN(c3cccc(C(F)(F)F)c3)CC2)c2ccccc2O1", "note": "(stereo not drawn)", "activity change, negative = inhibition": "inactive: -12.9%"}
{"smiles": "O=C(NCC(=O)N(c1cnc2ccccc2c1)C(C(=O)NC1CCCC1)c1ccncc1)c1ccco1", "note": "(stereo not drawn)", "activity change, negative = inhibition": "inconclusive: 8.02%"}
{"smiles": "COc1ccc(C(=O)NC(=S)Nc2ccc(NC(=O)c3ccco3)cc2)cc1[N+](=O)[O-]", "activity change, negative = inhibition": "inconclusive: 10.7%"}
{"smiles": "COc1ccc(CCN2C(=O)c3[nH]nc(-c4ccccc4O)c3C2c2cccc(O)c2)cc1OC", "note": "(stereo not drawn)", "Potency": "inconclusive: 8.91 µM [falling, partial curve, poor fit]"}
{"smiles": "COCn1c(COc2ccc3ccccc3c2)nc2ccccc21", "activity change, negative = inhibition": "inconclusive: -18.4%"}
{"smiles": "COc1ccc(COc2ccc3c(C)cc(=O)oc3c2)cc1", "activity change, negative = inhibition": "inconclusive: -1.21%"}
{"smiles": "CC(C)CN(C(=O)/C=C/c1nc2ccccc2s1)C1CCS(=O)(=O)C1", "note": "(stereo not drawn)", "activity change, negative = inhibition": "inactive: -7.01%"}
{"smiles": "NS(=O)(=O)c1ccc(NC(=S)NCc2cccs2)cc1", "Potency": "inconclusive: 11.2 µM [falling, partial curve, poor fit]"}
{"smiles": "COc1ccccc1NC(=O)c1cc2ccc(O)cc2o/c1=N\\O", "activity change, negative = inhibition": "inconclusive: -12.2%"}
{"smiles": "CCc1nnc(NC(=O)CN2CCN(C3CCCCC3)CC2)s1", "activity change, negative = inhibition": "inconclusive: 2.66%"}
{"smiles": "CC(C)CN(C(=O)COC(=O)CNC(=O)c1ccccc1)c1c(N)n(Cc2ccccc2)c(=O)[nH]c1=O", "activity change, negative = inhibition": "inconclusive: 9.48%"}
{"smiles": "O=C(O)CCCn1c(=S)[nH]c2c(sc3ccc([N+](=O)[O-])cc32)c1=O", "Potency": "inconclusive: 10 µM [falling, partial curve]"}
{"smiles": "c1ccc(-c2nnc3n2NC(c2ccc4c(c2)OCO4)S3)cc1", "note": "(stereo not drawn)", "activity change, negative = inhibition": "inconclusive: 1.74%"}
{"smiles": "COc1cc(N=Cc2c(O)[nH]c3ccccc23)cc(OC)c1OC", "Potency": "inconclusive: 9.2 µM [falling, partial curve]"}
{"smiles": "CCc1c(C)sc(NC(=S)N2CCN(CC)CC2)c1C(=O)OC", "activity change, negative = inhibition": "inconclusive: 1.97%"}
{"smiles": "CC(=O)Nc1ccc(C#Cc2ccc(NC(C)=O)cc2)cc1", "activity change, negative = inhibition": "inconclusive: 3.84%"}
{"smiles": "O=C(OCCN1CCCCC1)c1ccccc1Cl", "activity change, negative = inhibition": "inactive: -0.0013%"}
{"smiles": "COc1cc(C(=O)OCC(C)=O)cc(NC(=O)c2ccco2)c1OC", "activity change, negative = inhibition": "inconclusive: 6.74%"}
{"smiles": "COc1cccc(-c2noc(CCC(=O)NCC3CCCO3)n2)c1", "note": "(stereo not drawn)", "Potency": "inconclusive: 5.01 µM [rising, partial curve]"}
{"smiles": "COc1ccc(OC)c(S(=O)(=O)Nc2ccc(O)c3ccccc23)c1", "Potency": "inconclusive: 29.1 µM [falling, single point]"}
{"smiles": "O=[N+]([O-])c1cc(Cl)cc(/C=N/NC(=S)Nc2cc(S(=O)(=O)N3CCOCC3)ccc2Cl)c1O", "Potency": "inconclusive: 11.2 µM [falling, partial curve, poor fit]"}
{"smiles": "CC(Oc1cccc(Cl)c1)C(=O)Nc1nc(-c2ccccn2)cs1", "note": "(stereo not drawn)", "Potency": "inconclusive: 2.91 µM [falling, full curve]"}
{"smiles": "O=C1COc2ccc(C(=O)COC(=O)c3cc(S(=O)(=O)N4CCOCC4)ccc3F)cc2N1", "activity change, negative = inhibition": "inactive: -0.862%"}
{"smiles": "CC(=O)c1ccc(NC(=O)c2ccc([N+](=O)[O-])o2)cc1", "Potency": "inconclusive: 25.1 µM [falling, single point]"}
{"smiles": "Cc1cccc(NC(=O)C(=O)C2C(=O)Nc3ccccc32)c1", "note": "(stereo not drawn)", "Potency": "inconclusive: 14.1 µM [falling, single point]"}
{"smiles": "Cc1cccc(/C=C/C(=O)c2ccc(NC3=NCCCS3)cc2)c1", "Potency": "inconclusive: 25.9 µM [falling, single point]"}
{"smiles": "Cc1ccc(NC(=S)N(CCCN(C)C)Cc2cc3cc4c(cc3[nH]c2=O)OCO4)c(C)c1", "Potency": "inconclusive: 20 µM [falling, partial curve, poor fit]"}
{"smiles": "CCSC1=N/C(=C\\C=C2/Oc3ccccc3N2CC)C(=O)S1", "activity change, negative = inhibition": "inconclusive: 4.41%"}
{"smiles": "CCOc1ccc(/C=N/N2C(=O)C(CC(=O)Nc3ccc(F)cc3F)SC2=NC)cc1OC", "note": "(stereo not drawn)", "activity change, negative = inhibition": "inactive: -12%"}
{"smiles": "Cc1cc(C)c2c(=O)[nH]c(SCC(=O)N(C)C)nc2n1", "activity change, negative = inhibition": "inconclusive: 2.12%"}
{"smiles": "CCCCCc1cc(=O)oc2c(C(CCN(CC)CC)c3ccc(OC)cc3)c(OC)cc(OC)c12", "note": "(stereo not drawn)", "Potency": "inconclusive: 14.1 µM [falling, single point]"}
{"smiles": "Cc1ccc(NC(=O)CCc2nnc3ccc(N4CCC(C)CC4)nn23)nc1", "activity change, negative = inhibition": "inconclusive: 10.4%"}
{"smiles": "Cc1c(C(=O)N(Cc2ccc(Cl)cc2)C2CCS(=O)(=O)C2)oc2ccccc12", "note": "(stereo not drawn)", "activity change, negative = inhibition": "inactive: -4.24%"}
{"smiles": "COc1ccc(N2CCN(S(=O)(=O)CCNC(=O)c3ccco3)CC2)cc1", "activity change, negative = inhibition": "inactive: 0.208%"}
{"smiles": "O=C(CSc1nnc(CNC(=O)c2cccs2)o1)Nc1ccccc1", "activity change, negative = inhibition": "inconclusive: 11.7%"}
{"smiles": "O=[N+]([O-])c1ccccc1CNc1ccc(F)c(Cl)c1", "activity change, negative = inhibition": "inactive: 6%"}
